This passage reports binding signal results from paper PMC7819943, “Rice protein-binding microarrays: a tool to detect cis-acting elements near promoter regions in rice”.

The chains behind the UniProt entries cited, without tags or fusion partners.
UniProt Q0JBA9, entry or part of it: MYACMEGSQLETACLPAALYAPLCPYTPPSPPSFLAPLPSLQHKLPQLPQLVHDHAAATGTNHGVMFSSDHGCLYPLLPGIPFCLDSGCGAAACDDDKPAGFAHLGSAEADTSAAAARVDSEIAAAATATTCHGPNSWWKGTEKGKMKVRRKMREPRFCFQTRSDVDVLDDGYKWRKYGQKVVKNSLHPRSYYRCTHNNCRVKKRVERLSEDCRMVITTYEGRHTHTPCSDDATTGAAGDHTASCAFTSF

The other results are listed elsewhere or left out.

The target of this experiment is OsWRKY34 (Oryza sativa, UniProt Q0JBA9 1-250). Briefly: protein-binding microarray (RPBM); PBS, 2% BSA, 51.3 ng/ul salmon testes DNA, 50 uM zinc acetate, 200 nM TF, 25 C, 1 h; high values mean tight binding. Conditions: protein: recombinant; tags: N-terminal polyhistidine and DsRed monomer fusion (pET32a); label: CyDye5-dUTP incorporated in the synthesized complementary strand; 3' TTTTT single-stranded linker to array surface; dsDNA, one strand shown. The method in brief: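 Polyhistidine-tagged DsRed fusions of transcription factors, joined at the N-terminus, were expressed in E. coli BL21-CodonPlus and isolated on Ni–NTA. They were incubated at 200 nM for 1 h at 25 °C on a custom Agilent array, double-stranded and BSA-blocked, in PBS with 2% BSA, salmon testes DNA and 50 µM zinc acetate. The binding signal is per-feature fluorescence intensity (arbitrary units) read on an Axon 4000B scanner after washing.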
Take “ACTACCGCTTGAGCTCAAGTTTTGCCGCCACCACCGCAGCCGGAGTCACCTAGTGCAG”: the binding signal was 8690 fluorescence intensity (a.u.).

Turning to “CCCCAACCCACTCACTAACATATGTTTGACTAGTTTGTCACGGAGTCACCTAGTGCAG”, the binding signal was 10100 fluorescence intensity (a.u.).

Take “GTCAACCCATACACAACTTGATCTATGTATGTATTGTACGCGGAGTCACCTAGTGCAG”: the binding signal is 9270 fluorescence intensity (a.u.).

In the case of “CTCCTCGGGGCCGCCGCGCCGCGCCTGCCCGCGCCCGACTCGGAGTCACCTAGTGCAG”, the binding signal is 10600 fluorescence intensity (a.u.).

For the sequence “TAATACGTTGTCCGCAAATTATACAATTCCTTTTGGCTGTCGGAGTCACCTAGTGCAG”, the binding signal was 11100 fluorescence intensity (a.u.).

For the sequence “TGGTTCTATTTGCTTGTCAACCTTTATGATCTTGCGTTATCGGAGTCACCTAGTGCAG”, the binding signal was 11500 fluorescence intensity (a.u.).

On to “TGCACAATGCCTTCACTGTCAACACACAACTGTTTGGTCCCGGAGTCACCTAGTGCAG”, for which the binding signal is 9980 fluorescence intensity (a.u.).

“AGAGTTTGGCATACTCCTACGTATCATTGTCGACCTTTAGCGGAGTCACCTAGTGCAG”: the binding signal is 8340 fluorescence intensity (a.u.).

For the sequence “CTGACTCCTCCCATGTTCCTTCCCTGATATCGTCATAACTCGGAGTCACCTAGTGCAG”, the binding signal was 8520 fluorescence intensity (a.u.).

“GCTATCTTTTCTCTTGGTCATCATGCTTCCTCCATGGATTCGGAGTCACCTAGTGCAG”: the binding signal is 8330 fluorescence intensity (a.u.).

“GTCCTAGAGCAGTCCGCTACCTCTATCTGCTCGGCCTATCCGGAGTCACCTAGTGCAG”: the binding signal is 13000 fluorescence intensity (a.u.).

As to “AATCGGATTCGTTCCGGTTTTTTTTCACCCGGTTTTTTTGCGGAGTCACCTAGTGCAG”, the binding signal was 8600 fluorescence intensity (a.u.).

Consider “CGTCTAATAGAGCCGAGGCCGTACTTGCTATTCCTTTGCACGGAGTCACCTAGTGCAG”, for which the binding signal was 8260 fluorescence intensity (a.u.).

As for “GAGTTTAGTTTAAACTTTTTTTTTCAAACTTCCAACTTTTCGGAGTCACCTAGTGCAG”, the binding signal is 8410 fluorescence intensity (a.u.).

For “CACTAATTTTACCTTAAGATGCCAGGAATTGACTTTTTTTCGGAGTCACCTAGTGCAG”, the binding signal was 9930 fluorescence intensity (a.u.).

Regarding “CCGCGTCTCATTCCATCTACCACTCTAGCCTACTACTCCGCGGAGTCACCTAGTGCAG”, the binding signal was 10900 fluorescence intensity (a.u.).

As for “GGACACCCGCCCCGCCTCGCCTCGCCTCTGCCTCTCCCCGCGGAGTCACCTAGTGCAG”, the binding signal was 8240 fluorescence intensity (a.u.).

For “TTGGTTGGTTGGTTGGTGTTTTGAGGCTTGGGTCGGCTTACGGAGTCACCTAGTGCAG”, the binding signal is 17100 fluorescence intensity (a.u.).

In the case of “TTGAGGCCCCTTAACTTGTTAATGAATTCGATTTTCGTCCCGGAGTCACCTAGTGCAG”, the binding signal is 8200 fluorescence intensity (a.u.).

On to “GTATTCATATGCCAATTAAATTTGCGTCAAGCTTTTTGTTCGGAGTCACCTAGTGCAG”, for which the binding signal is 9080 fluorescence intensity (a.u.).

Turning to “CCCAACCCCGTGCCGCGGCCTCGCCGATCGATCGATCGTGCGGAGTCACCTAGTGCAG”, the binding signal is 8350 fluorescence intensity (a.u.).

For “ATAACCTACTCTCTCCGGTTTCATAATTCTTAACATATTGCGGAGTCACCTAGTGCAG”, the binding signal was 9650 fluorescence intensity (a.u.).

Take “TTTTCACGCTCAACTGCAATTTGTTATACACTTATACTAACGGAGTCACCTAGTGCAG”: the binding signal was 9280 fluorescence intensity (a.u.).

Turning to “AGTACTGCACTGCTCCTACCTTCTGCAAATCCAATCAATCCGGAGTCACCTAGTGCAG”, the binding signal is 8950 fluorescence intensity (a.u.).

In the case of “CATTCGTTGTCAATCTTTCTTGTAAGTATCTCAATACATCCGGAGTCACCTAGTGCAG”, the binding signal is 10200 fluorescence intensity (a.u.).

On to “CTTGTCGTCGCCTTCGCCATCCCCGCCGCCGTTCCCGCCACGGAGTCACCTAGTGCAG”, for which the binding signal is 10800 fluorescence intensity (a.u.).

Turning to “ATGACGCCGTTGACTTTTTAACAAACGTTTGACCATTCGTCGGAGTCACCTAGTGCAG”, the binding signal was 21700 fluorescence intensity (a.u.).

“CTTGCTTAGTGCAATAGCCATTCTACATTCTGTATCTTGACGGAGTCACCTAGTGCAG”: the binding signal is 8740 fluorescence intensity (a.u.).

In the case of “AGTTCGGTACTACTCCTACTACTACTACTACTACTACTACCGGAGTCACCTAGTGCAG”, the binding signal was 10200 fluorescence intensity (a.u.).

Consider “GATTCCATTCTCTTATCGTTTTCCTCCCGAGCCGCTTCGTCGGAGTCACCTAGTGCAG”, for which the binding signal is 8280 fluorescence intensity (a.u.).

On to “GCACAGAGCATGCAAATTCCTTTCCGGCCCATTAGAAATTCGGAGTCACCTAGTGCAG”, for which the binding signal is 8650 fluorescence intensity (a.u.).

Take “GCTATCTTTGACCACGCCGCACTGTTGCCGCGCATGCACACGGAGTCACCTAGTGCAG”: the binding signal was 9920 fluorescence intensity (a.u.).

As to “TTATTTTACCTCTTTGTCCATGTTTAATTACAAGGAATTTCGGAGTCACCTAGTGCAG”, the binding signal is 8480 fluorescence intensity (a.u.).

“CTCTGGCCCTCTGCTATTGATGTGTGTGCTACTTGCAGCTCGGAGTCACCTAGTGCAG”: the binding signal was 12800 fluorescence intensity (a.u.).

“TTTCTTCCTTAATTTGTATCGATTCACCTAGATATGTTTCCGGAGTCACCTAGTGCAG”: the binding signal was 8240 fluorescence intensity (a.u.).

Turning to “TCTGTTATATTTTTAGCACTAGTCTAGATTTCTAGTACTACGGAGTCACCTAGTGCAG”, the binding signal was 8060 fluorescence intensity (a.u.).

For the sequence “AATATAGTTGCTGATGCGCTGTCCAGGATGCCTGTTATACCGGAGTCACCTAGTGCAG”, the binding signal is 9400 fluorescence intensity (a.u.).

In the case of “GCTTCTCCGCCTTGGGCTTCTTCCCCGCCGGCGCCTTCTCCGGAGTCACCTAGTGCAG”, the binding signal is 11600 fluorescence intensity (a.u.).

Consider “AGCTCACAGCTTGCATTGTACTAGTACACTGTACTACTCTCGGAGTCACCTAGTGCAG”, for which the binding signal is 8030 fluorescence intensity (a.u.).

For “CCATTCGGCGTTCTTTTTCTTCTTGTCATTAATTAATTATCGGAGTCACCTAGTGCAG”, the binding signal was 10600 fluorescence intensity (a.u.).

For “GCTTTCTAGAACACGTCCAAGTTGAGCATTGTTTCAGTGACGGAGTCACCTAGTGCAG”, the binding signal was 8060 fluorescence intensity (a.u.).

For “CGGTCAGCCTTTTTTTTTACCCAAAATTTTTTGCTATTTTCGGAGTCACCTAGTGCAG”, the binding signal is 13300 fluorescence intensity (a.u.).
